{"sequences": {"note": "Amino acid sequences for entries named in this document (tags omitted).", "UniProt C0Z2L5": "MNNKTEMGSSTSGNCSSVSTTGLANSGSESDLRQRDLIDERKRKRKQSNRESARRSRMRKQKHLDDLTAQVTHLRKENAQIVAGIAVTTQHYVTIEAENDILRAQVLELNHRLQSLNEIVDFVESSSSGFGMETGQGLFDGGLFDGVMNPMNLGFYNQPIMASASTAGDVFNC"}, "source": "paper doi:10.1101/2022.04.17.488518", "key": {"[1]": {"target": "T1, HaloTag-fused bZIP10 (Group C bZIP) (Arabidopsis thaliana) (UniProt O22763)", "T1 sequence": "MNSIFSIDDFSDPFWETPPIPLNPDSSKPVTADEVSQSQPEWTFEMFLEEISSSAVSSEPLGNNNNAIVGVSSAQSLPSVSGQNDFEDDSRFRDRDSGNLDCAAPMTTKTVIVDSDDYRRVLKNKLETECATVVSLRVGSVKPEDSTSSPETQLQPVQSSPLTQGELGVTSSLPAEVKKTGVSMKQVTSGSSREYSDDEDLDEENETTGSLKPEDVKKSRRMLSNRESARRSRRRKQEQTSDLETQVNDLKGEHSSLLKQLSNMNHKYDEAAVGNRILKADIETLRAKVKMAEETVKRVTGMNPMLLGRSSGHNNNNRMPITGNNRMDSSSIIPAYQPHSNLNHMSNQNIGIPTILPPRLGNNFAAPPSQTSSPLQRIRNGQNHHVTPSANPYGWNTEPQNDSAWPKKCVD", "experiment": "pull-down"}, "[2]": {"target": "T2, HaloTag-fused bZIP63 (Group C bZIP) (Arabidopsis thaliana) (UniProt B9DGI8)", "T2 sequence": "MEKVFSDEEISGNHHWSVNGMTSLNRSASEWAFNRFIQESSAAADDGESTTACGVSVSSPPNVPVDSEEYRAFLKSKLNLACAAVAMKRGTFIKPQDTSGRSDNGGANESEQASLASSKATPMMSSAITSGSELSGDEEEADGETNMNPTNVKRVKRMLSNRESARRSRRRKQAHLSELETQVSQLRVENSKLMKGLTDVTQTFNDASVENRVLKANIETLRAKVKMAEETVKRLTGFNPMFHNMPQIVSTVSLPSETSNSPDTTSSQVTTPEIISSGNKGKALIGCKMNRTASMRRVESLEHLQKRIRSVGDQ", "experiment": "pull-down"}}, "note": "Results are given in words; binding and its absence hold for the method and conditions named. In cells and extracts the contact can be indirect. Some binding calls cover weakened binding; strength is not graded here. Tags and fused reporters may be left off the sequences shown.", "data": [{"substance": "SBPTag-fused bZIP44 (Group S1 bZIP) (from UniProt C0Z2L5 1-173)", "values": [{"measurement": "binding", "setting": "[1]", "result": "binds"}, {"measurement": "binding", "setting": "[2]", "result": "binds"}]}]}
